The text below walks through data of US9658235B2, “Pi-extended acedan derivatives, their application for two-photon microscopy imaging, and their application for two-photon microscopy imaging of amyloid-beta plaque in an alzheimer's disease animal model” (POSTECH ACADEMY-INDUSTRY FOUNDATION, priority 2015, dated 2017).

In the data set the test system is brain, liver, kidney, spleen and lung tissue of mice. Description: Two-photon microscope imaging of tissue slices of mice. The arrangement: species or system C57BL6 mice. As to conditions: 10 μM.

On to `CN(C)c1ccc2cc3c(cc2c1)OC1CCCC(=O)C1=C3` (centres unmarked) [compound 4a, 8-(dimethylamino)-2,3,4a-tetrahydro-1H-benzo[b]xanthene-1-one], for which, under “10 minutes, 16 μm slices, excitation 900 nm (acedan 780 nm), 10 mW”, the “two-photon microscope image quality compared to acedan” value was “more clear image with a higher contrast”. The “effect from autofluorescence in the image” value (excitation 900 nm, contrary to acedan at 780 nm) is reported as “sufficiently suppressed”.
